No constants are given. Whether binding was seen depends on the method and setting. Some results given as binding are weak or reduced against the parent protein; the word gives no strength. Where a sequence is shown, tags or fusion partners need not be part of it.

For the assay, the target named is His6-AviTag-MBP-TEV-POLE2 (human) (UniProt P56282). As to the kind of experiment: native holdup (nHU) titration with dot blot; purified His6-avi-MBP-tagged POLE2 as bait on resin; extracts of HEK293T cells transfected with HA-tagged full length proteins; 4 °C, 2 h; anti-HA dot blot; apparent; only the target purified.

B1: HA-TTF2, full length, intact NPF motifs (protein, UniProt Q9UNY4 1-1162)
chain: MEEVRCPEHGTFCFLKTGVRDGPNKGKSFYVCRADTCSFVRATDIPVSHCLLHEDFVVELQGLLLPQDKKEYRLFFRCIRSKAEGKRWCGSIPWQDPDSKEHSVSNKSQHASETFHHSSNWLRNPFKVLDKNQEPALWKQLIKGEGEEKKADKKQREKGDQLFDQKKEQKPEMMEKDLSSGLVPKKKQSVVQEKKQEEGAEIQCEAETGGTHKRDFSEIKSQQCQGNELTRPSASSQEKSSGKSQDVQRESEPLREKVTQLLPQNVHSHNSISKPQKGGPLNKEYTNWEAKETKAKDGPSIQATQKSLPQGHFQERPETHSVPAPGGPAAQAAPAAPGLSLGEGREAATSSDDEEEDDVVFVSSKPGSPLLFDSTLDLETKENLQFPDRSVQRKVSPASGVSKKVEPSDPVARRVYLTTQLKQKKSTLASVNIQALPDKGQKLIKQIQELEEVLSGLTLSPEQGTNEKSNSQVPQQSHFTKTTTGPPHLVPPQPLPRRGTQPVGSLELKSACQVTAGGSSQCYRGHTNQDHVHAVWKITSEAIGQLHRSLESCPGETVVAEDPAGLKVPLLLHQKQALAWLLWRESQKPQGGILADDMGLGKTLTMIALILTQKNQEKKEEKEKSTALTWLSKDDSCDFTSHGTLIICPASLIHHWKNEVEKRVNSNKLRVYLYHGPNRDSRARVLSTYDIVITTYSLVAKEIPTNKQEAEIPGANLNVEGTSTPLLRIAWARIILDEAHNVKNPRVQTSIAVCKLQACARWAVTGTPIQNNLLDMYSLLKFLRCSPFDEFNLWRSQVDNGSKKGGERLSILTKSLLLRRTKDQLDSTGRPLVILPQRKFQLHHLKLSEDEETVYNVFFARSRSALQSYLKRHESRGNQSGRSPNNPFSRVALEFGSEEPRHSEAADSPRSSTVHILSQLLRLRQCCCHLSLLKSALDPMELKGEGLVLSLEEQLSALTLSELRDSEPSSTVSLNGTFFKMELFEGMRESTKISSLLAELEAIQRNSASQKSVIVSQWTNMLKVVALHLKKHGLTYATIDGSVNPKQRMDLVEAFNHSRGPQVMLISLLAGGVGLNLTGGNHLFLLDMHWNPSLEDQACDRIYRVGQQKDVVIHRFVCEGTVEEKILQLQEKKKDLAKQVLSGSGESVTKLTLADLRVLFGI
Consider B1, for which the binding result was “binds”.

B2: HA-WDHD1, full length, intact NPF motif (protein, UniProt O75717 1-1129)
chain: MPATRKPMRYGHTEGHTEVCFDDSGSFIVTCGSDGDVRIWEDLDDDDPKFINVGEKAYSCALKSGKLVTAVSNNTIQVHTFPEGVPDGILTRFTTNANHVVFNGDGTKIAAGSSDFLVKIVDVMDSSQQKTFRGHDAPVLSLSFDPKDIFLASASCDGSVRVWQISDQTCAISWPLLQKCNDVINAKSICRLAWQPKSGKLLAIPVEKSVKLYRRESWSHQFDLSDNFISQTLNIVTWSPCGQYLAAGSINGLIIVWNVETKDCMERVKHEKGYAICGLAWHPTCGRISYTDAEGNLGLLENVCDPSGKTSSSKVSSRVEKDYNDLFDGDDMSNAGDFLNDNAVEIPSFSKGIINDDEDDEDLMMASGRPRQRSHILEDDENSVDISMLKTGSSLLKEEEEDGQEGSIHNLPLVTSQRPFYDGPMPTPRQKPFQSGSTPLHLTHRFMVWNSIGIIRCYNDEQDNAIDVEFHDTSIHHATHLSNTLNYTIADLSHEAILLACESTDELASKLHCLHFSSWDSSKEWIIDLPQNEDIEAICLGQGWAAAATSALLLRLFTIGGVQKEVFSLAGPVVSMAGHGEQLFIVYHRGTGFDGDQCLGVQLLELGKKKKQILHGDPLPLTRKSYLAWIGFSAEGTPCYVDSEGIVRMLNRGLGNTWTPICNTREHCKGKSDHYWVVGIHENPQQLRCIPCKGSRFPPTLPRPAVAILSFKLPYCQIATEKGQMEEQFWRSVIFHNHLDYLAKNGYEYEESTKNQATKEQQELLMKMLALSCKLEREFRCVELADLMTQNAVNLAIKYASRSRKLILAQKLSELAVEKAAELTATQVEEEEEEEDFRKKLNAGYSNTATEWSQPRFRNQVEEDAEDSGEADDEEKPEIHKPGQNSFSKSTNSSDVSAKSGAVTFSSQGRVNPFKVSASSKEPAMSMNSARSTNILDNMGKSSKKSTALSRTTNNEKSPIIKPLIPKPKPKQASAASYFQKRNSQTNKTEEVKEENLKNVLSETPAICPPQNTENQRPKTGFQMWLEENRSNILSDNPDFSDEADIIKEGMIRFRVLSTEERKVWANKAKGETASEGTEAKKRKRVVDESDETENQEEKAKENLNLSKKQKPLDFSTNQKLSAFAFKQE
Regarding B2, the binding entry is “binds”.

B3: HA-ERCC6L, full length, intact NPF motif (protein, UniProt Q2NKX8 1-1250)
chain: MEASRRFPEAEALSPEQAAHYLRYVKEAKEATKNGDLEEAFKLFNLAKDIFPNEKVLSRIQKIQEALEELAEQGDDEFTDVCNSGLLLYRELHNQLFEHQKEGIAFLYSLYRDGRKGGILADDMGLGKTVQIIAFLSGMFDASLVNHVLLIMPTNLINTWVKEFIKWTPGMRVKTFHGPSKDERTRNLNRIQQRNGVIITTYQMLINNWQQLSSFRGQEFVWDYVILDEAHKIKTSSTKSAICARAIPASNRLLLTGTPIQNNLQELWSLFDFACQGSLLGTLKTFKMEYENPITRAREKDATPGEKALGFKISENLMAIIKPYFLRRTKEDVQKKKSSNPEARLNEKNPDVDAICEMPSLSRKNDLIIWIRLVPLQEEIYRKFVSLDHIKELLMETRSPLAELGVLKKLCDHPRLLSARACCLLNLGTFSAQDGNEGEDSPDVDHIDQVTDDTLMEESGKMIFLMDLLKRLRDEGHQTLVFSQSRQILNIIERLLKNRHFKTLRIDGTVTHLLEREKRINLFQQNKDYSVFLLTTQVGGVGLTLTAATRVVIFDPSWNPATDAQAVDRVYRIGQKENVVVYRLITCGTVEEKIYRRQVFKDSLIRQTTGEKKNPFRYFSKQELRELFTIEDLQNSVTQLQLQSLHAAQRKSDIKLDEHIAYLQSLGIAGISDHDLMYTCDLSVKEELDVVEESHYIQQRVQKAQFLVEFESQNKEFLMEQQRTRNEGAWLREPVFPSSTKKKCPKLNKPQPQPSPLLSTHHTQEEDISSKMASVVIDDLPKEGEKQDLSSIKVNVTTLQDGKGTGSADSIATLPKGFGSVEELCTNSSLGMEKSFATKNEAVQKETLQEGPKQEALQEDPLESFNYVLSKSTKADIGPNLDQLKDDEILRHCNPWPIISITNESQNAESNVSIIEIADDLSASHSALQDAQASEAKLEEEPSASSPQYACDFNLFLEDSADNRQNFSSQSLEHVEKENSLCGSAPNSRAGFVHSKTCLSWEFSEKDDEPEEVVVKAKIRSKARRIVSDGEDEDDSFKDTSSINPFNTSLFQFSSVKQFDASTPKNDISPPGRFFSSQIPSSVNKSMNSRRSLASRRSLINMVLDHVEDMEERLDDSSEAKGPEDYPEEGVEESSGEASKYTEEDPSGETLSSENKSSWLMTSKPSALAQETSLGAPEPLSGEQLVGSPQDKAAEATNDYETLVKRGKELKECGKIQEALNCLVKALDIKSADPEVMLLTLSLYKQLNNN
Take B3: the binding entry was “binds”.
